Source: article PMC8412950
Positions count from the first letter of the chain named. These are yes or no findings as the source states them, for the method shown. In cells and extracts the contact can be indirect. For part of these data: Binding can be weak; no strength is given. Where a sequence is shown, tags or fusion partners need not be part of it.

How the values were obtained:
Test in all cases: co-IP
[1] = target: T1, NRC3::4xMyc (Nicotiana benthamiana)
T1 sequence: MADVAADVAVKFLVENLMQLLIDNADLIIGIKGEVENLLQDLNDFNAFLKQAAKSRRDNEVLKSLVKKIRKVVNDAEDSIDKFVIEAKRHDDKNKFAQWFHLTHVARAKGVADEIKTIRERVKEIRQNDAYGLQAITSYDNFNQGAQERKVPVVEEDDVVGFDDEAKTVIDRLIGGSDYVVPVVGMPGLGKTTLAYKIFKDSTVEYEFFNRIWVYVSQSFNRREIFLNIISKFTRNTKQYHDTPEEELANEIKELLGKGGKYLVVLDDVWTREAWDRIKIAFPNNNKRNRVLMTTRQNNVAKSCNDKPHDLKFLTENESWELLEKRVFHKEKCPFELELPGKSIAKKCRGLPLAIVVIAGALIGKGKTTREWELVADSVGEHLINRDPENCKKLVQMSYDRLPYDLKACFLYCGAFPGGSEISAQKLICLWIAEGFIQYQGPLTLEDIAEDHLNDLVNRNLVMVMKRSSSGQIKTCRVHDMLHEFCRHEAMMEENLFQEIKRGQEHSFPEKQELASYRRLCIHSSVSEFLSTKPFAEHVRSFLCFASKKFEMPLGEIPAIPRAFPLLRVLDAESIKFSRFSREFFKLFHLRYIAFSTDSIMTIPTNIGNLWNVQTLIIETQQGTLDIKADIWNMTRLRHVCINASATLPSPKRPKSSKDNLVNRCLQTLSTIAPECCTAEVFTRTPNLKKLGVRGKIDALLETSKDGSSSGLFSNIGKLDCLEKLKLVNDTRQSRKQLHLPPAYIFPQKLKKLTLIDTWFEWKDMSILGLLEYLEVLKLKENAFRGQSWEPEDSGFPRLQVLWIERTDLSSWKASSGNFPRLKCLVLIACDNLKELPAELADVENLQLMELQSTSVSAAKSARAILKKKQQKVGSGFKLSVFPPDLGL

[2] = target: T2, NRC3^K191R::4xMyc (p-loop mutant) (Nicotiana benthamiana)
T2 sequence: T1 sequence with K191R

[3] = target: T3, NRC4^K190R::4xMyc (p-loop mutant) (Nicotiana benthamiana)
T3 sequence: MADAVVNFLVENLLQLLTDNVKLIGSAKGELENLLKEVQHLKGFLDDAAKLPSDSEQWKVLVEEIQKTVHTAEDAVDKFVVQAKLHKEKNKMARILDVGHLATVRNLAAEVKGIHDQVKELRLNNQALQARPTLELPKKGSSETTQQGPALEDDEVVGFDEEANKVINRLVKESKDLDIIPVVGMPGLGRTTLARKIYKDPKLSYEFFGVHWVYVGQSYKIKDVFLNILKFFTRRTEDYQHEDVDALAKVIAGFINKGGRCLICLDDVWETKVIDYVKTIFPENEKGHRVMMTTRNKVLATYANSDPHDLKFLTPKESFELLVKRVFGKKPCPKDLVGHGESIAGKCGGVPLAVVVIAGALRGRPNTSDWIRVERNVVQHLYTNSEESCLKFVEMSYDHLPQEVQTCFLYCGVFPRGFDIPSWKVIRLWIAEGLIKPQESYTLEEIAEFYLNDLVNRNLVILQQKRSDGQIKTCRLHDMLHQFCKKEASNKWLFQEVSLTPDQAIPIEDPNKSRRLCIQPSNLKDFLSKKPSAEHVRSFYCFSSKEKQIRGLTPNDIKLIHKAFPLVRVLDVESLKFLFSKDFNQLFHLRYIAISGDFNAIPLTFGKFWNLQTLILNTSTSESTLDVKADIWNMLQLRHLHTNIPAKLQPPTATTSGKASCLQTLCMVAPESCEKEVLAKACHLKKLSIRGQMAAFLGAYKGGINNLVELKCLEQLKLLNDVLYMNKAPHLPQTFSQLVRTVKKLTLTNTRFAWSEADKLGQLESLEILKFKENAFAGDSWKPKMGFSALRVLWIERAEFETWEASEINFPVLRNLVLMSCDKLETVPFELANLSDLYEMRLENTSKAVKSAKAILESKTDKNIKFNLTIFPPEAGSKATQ

[4] = target: T4, GFP::PexRD54 (Phytophthora infestans) (UniProt D0NBE6)
T4 sequence: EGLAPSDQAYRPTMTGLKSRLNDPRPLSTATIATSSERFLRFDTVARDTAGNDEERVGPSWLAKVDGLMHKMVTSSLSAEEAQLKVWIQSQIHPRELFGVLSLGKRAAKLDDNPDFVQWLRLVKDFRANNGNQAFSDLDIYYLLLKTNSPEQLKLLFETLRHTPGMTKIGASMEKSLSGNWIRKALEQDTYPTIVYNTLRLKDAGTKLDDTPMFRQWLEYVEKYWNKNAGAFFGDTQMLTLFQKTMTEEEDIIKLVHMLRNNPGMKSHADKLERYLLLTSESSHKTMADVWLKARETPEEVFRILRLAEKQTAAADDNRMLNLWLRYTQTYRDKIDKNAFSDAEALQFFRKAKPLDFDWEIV

[5] = target: NbTOL9a::6xHA (Nicotiana benthamiana)

Molecule: 4xHA::SS15 (Globodera rostochiensis)
- binding [1]: binds
- binding [2]: binds
- binding [3]: binds

Molecule: NbTOL9a::6xHA (Nicotiana benthamiana)
- binding [1]: no binding
- binding [4]: no binding

B1: GFP::PexRD54 (protein, UniProt D0NBE6 20-381)
chain: T4 sequence
- binding [5]: no binding
